From publication PMC6410202, “Dual Action of the PN159/KLAL/MAP Peptide: Increase of Drug Penetration across Caco-2 Intestinal Barrier Model by Modulation of Tight Junctions and Plasma Membrane Permeability” (Pharmaceutics, 2019)

Assay: in vitro
Details: human, Caco-2, Papp A-B
Method: In the permeability experiments inserts with Caco-2 cell layers grown for 3 weeks were transferred to 12-well plates containing 1.5 mL Ringer–Hepes buffer in the lower (basal or acceptor) compartments. In the upper or apical compartments culture medium was replaced by 0.5 mL buffer containing peptide solutions: PN159 peptide at 1, 3, 10 and 30 μM concentrations and CPPs at 100 μM concentration. […] The incubation with permeability markers in the presence of PN159 peptide lasted for 30 min. In case of CPPs the incubation time with fluorescein was 1-h. Samples were collected from both compartments and the concentrations of the marker molecules were determined by a fluorescence multi-well plate reader (Fluostar Optima; excitation wavelength: 485 nm, emission wavelength: 535 nm in the case of fluorescein and excitation wavelength: 584 nm, emission wavelength: 680 nm in the case of Evans-blue labeled albumin). Fluorescein isothiocyanate (FITC)-labelled dextran marker molecules (Table 1) were used at 1 mM concentrations, and fluorescence intensities of collected samples were measured using a Fluorolog FL3-22 (Horiba Jobin Yvon, Paris, France) spectrofluorometer using 492 nm excitation wavelength, 515 nm emission wavelength, and 0.5 s integration time. Drugs were used at 10 μM concentrations and samples were measured by HPLC as described below. […]

Structure (SMILES): CC(C)NCC(O)COc1ccc(CC(N)=O)cc1 (centres unmarked) [atenolol]
- Papp A→B at 30 min, 10 μM (PN159 treated): 36.3 ± 1.9 ×10⁻⁶ cm/s
- Papp A→B at 30 min, 10 μM (control): 1.2 ± 0.3 ×10⁻⁶ cm/s
